# Data as given in the supplement of paper PMC9135407.
# Several values for one entry are separate records, joined by “and”; a condition that tells them apart may be missing. Identical values can stand only once. Counter-ions that a name gives are not always drawn. ± gives the standard deviation of the averaged measurements. Some of the results follow. Part of the spread comes from offsets between plates or batches.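 Primary human stellate myofibroblasts activated in culture; inactivation shown by regained lipid droplets. Readout: fraction of Hoechst-counted cells exceeding a per-plate Bodipy threshold, duplicate wells, each plate with DMSO negative and nortriptyline positive controls. Hits: control-normalized score beyond the plate's top-tenth-percentile nortriptyline wells, or among its three best wells. Final well concentrations unstated.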
# Test system: primary human hepatic stellate cells (donor 1)
# Experiment: percent Bodipy-positive cells; higher = more lipid droplet accumulation
# Details: 48 h
# [1] = library stock concentration: 3.33 mM
# [2] = library stock concentration: 10 mM
# [3] = library stock concentration: 80 uM
# [4] = library stock concentration: 400 uM
# [5] = library stock concentration: 2 mM
smiles,measurement,setting,value
Cc1noc(NS(=O)(=O)c2ccc(N)cc2)c1C [Sulfisoxazole],percent Bodipy-positive cells,,21.4 ± 2.8%
same,percent Bodipy-positive cells,[1],9.48 ± 3.9%
same,percent Bodipy-positive cells,library stock concentration: 7.5 mM,11.9 ± 5.4%
same,percent Bodipy-positive cells,[2],12.3% and 5.1% and 20.9%
CCc1cccc2c3c([nH]c12)C(CC)(CC(=O)O)OCC3 (centres undefined) [Etodolac],percent Bodipy-positive cells,,24.2 ± 11%
same,percent Bodipy-positive cells,[1],11.5 ± 5.9%
same,percent Bodipy-positive cells,library stock concentration: 7 mM,12.1 ± 0.32%
same,percent Bodipy-positive cells,[2],31.7% and 19% and 30.8%
CC[N+](CC)(CC)CCC(O)(c1ccccc1)C1CCCCC1 (centres undefined) [Tridihexethyl chloride],percent Bodipy-positive cells,,8.15 ± 2%
OCC(O)C(O)CO (centres undefined) [Erythritol],percent Bodipy-positive cells,[1],19.3 ± 2.2%
same,percent Bodipy-positive cells,[2],35.43 ± 0.35%
C[C@@H]1CN(CC(=O)Nc2ccc3c(c2)Cc2cccc(-c4cc(=O)cc(N5CCOCC5)o4)c2S3)C[C@H](C)O1,percent Bodipy-positive cells,[3],11.1 ± 2.5%
same,percent Bodipy-positive cells,[4],10.4 ± 3.8%
same,percent Bodipy-positive cells,[5],12.7 ± 2%
same,percent Bodipy-positive cells,[1],12.8 ± 6.6%
same,percent Bodipy-positive cells,[2],29.3% and 27.9%
CO[C@H]1C=C[C@@]23c4cc5c(cc4CN(C[C@@H]2O)[C@H]3C1)OCO5 [Crinamine],percent Bodipy-positive cells,[2],79.64 ± 0.17%
C[C@]12CC[C@@H]3c4ccc(O)cc4CC[C@H]3[C@@H]1C[C@@H](O)[C@@H]2O [Estriol],percent Bodipy-positive cells,,6.45 ± 1.6%
same,percent Bodipy-positive cells,[1],8.78 ± 0.82%
same,percent Bodipy-positive cells,library stock concentration: 6.9 mM,7.2% and 3.25%
same,percent Bodipy-positive cells,[2],6.5% and 7.75%
CN(C)CCCO[C@@H]1[C@H]2OC(C)(C)O[C@H]2O[C@@H]1[C@H](O)CO [Amiprilose],percent Bodipy-positive cells,library stock concentration: 5.9 mM,21 ± 2%
same,percent Bodipy-positive cells,[2],27.3 ± 14%
CN(C)CCCO[C@@H]1[C@H]2OC(C)(C)O[C@H]2O[C@@H]1[C@H](O)CO [Amiprilose hydrochloride],percent Bodipy-positive cells,,8.52 ± 3.9%
Cc1nc(N)sc1-c1ccnc(Nc2ccc(N3CCOCC3)cc2)n1,percent Bodipy-positive cells,[4],22.2 ± 0.41%
same,percent Bodipy-positive cells,[5],48.7 ± 21%
same,percent Bodipy-positive cells,[1],42.9 ± 27%
C=CC(=O)Nc1ccc2ncnc(Nc3ccc(OCc4cccc(F)c4)c(Cl)c3)c2c1,percent Bodipy-positive cells,[3],6.01 ± 2.4%
same,percent Bodipy-positive cells,[4],8.22 ± 0.4%
same,percent Bodipy-positive cells,[5],6.42 ± 0.76%
same,percent Bodipy-positive cells,[1],18.7 ± 0.86%
same,percent Bodipy-positive cells,[2],50.1% and 71.2%
CCCCC[C@H](O)/C=C/C=C\C=C\C=C\[C@@H](O)[C@@H](O)CCCC(=O)O [Lipoxin A4],percent Bodipy-positive cells,library stock concentration: 100 uM,10.6 ± 9.4%
CC1=C(CC(=O)O)c2cc(F)ccc2/C1=C\c1ccc([S+](C)[O-])cc1 (centres undefined) [Sulindac],percent Bodipy-positive cells,,36.2 ± 16%
same,percent Bodipy-positive cells,library stock concentration: 1 mM,10.4 ± 2%
same,percent Bodipy-positive cells,[1],7.54 ± 0.69%
CC(Oc1c(Cl)cccc1Cl)C1=NCCN1 (centres undefined) [Lofexidine],percent Bodipy-positive cells,library stock concentration: 7.7 mM,11.3 ± 2.9%
C=CC(=O)N1CCC[C@@H](n2nc(-c3ccc(Oc4ccccc4)cc3)c3c(N)ncnc32)C1,percent Bodipy-positive cells,[3],18.9 ± 11%
same,percent Bodipy-positive cells,[4],40.6 ± 0.97%
same,percent Bodipy-positive cells,[5],21.3 ± 5.2%
same,percent Bodipy-positive cells,[1],11.3 ± 1.3%
same,percent Bodipy-positive cells,[2],19.6% and 31.1%
CC(=O)N1CCN(CCOc2ccc(C3CCN(C4=Nn5c(nnc5C(F)(F)F)CC4)CC3)cc2)CC1,percent Bodipy-positive cells,[1],9.39 ± 0.47%
same,percent Bodipy-positive cells,[2],73.1 ± 23%
COc1ccc2cc1Oc1ccc(cc1)C[C@@H]1c3c(cc4c(c3Oc3cc5c(cc3OC)CCN(C)[C@H]5C2)OCO4)CCN1C [Cepharanthine],percent Bodipy-positive cells,[1],100%
CC(C)COC(=O)c1ccc(N)cc1,percent Bodipy-positive cells,[2],54.8 ± 16%
O=C1N(c2ccccc2)c2ccccc2C1(Cc1ccncc1)Cc1ccncc1 [Linopirdine dihydrochloride],percent Bodipy-positive cells,[2],6.03 ± 0.73%
O=C1N(c2ccccc2)c2ccccc2C1(Cc1ccncc1)Cc1ccncc1,percent Bodipy-positive cells,[2],10.6 ± 4.5%
O=C1N(c2ccccc2)c2ccccc2C1(Cc1ccncc1)Cc1ccncc1 [Linopirdine],percent Bodipy-positive cells,[2],37.8 ± 1.8%
[I-].[K+] [Potassium Iodide],percent Bodipy-positive cells,[1],8.62 ± 3.8%
same,percent Bodipy-positive cells,[2],17.9 ± 2.8%
CN(C)CCCOc1nn(Cc2ccccc2)c2ccccc12.Cl [Benzydamine HCl],percent Bodipy-positive cells,[2],94.4 ± 2.6%
c1ccc2[nH]cnc2c1 [DRB (Benzimidazole)],percent Bodipy-positive cells,library stock concentration: 15.7 mM,30.1 ± 9.4%
Cc1cc(-n2c(=O)[nH]c(=O)n(C)c2=O)ccc1Oc1ccc(SC(F)(F)F)cc1 [Toltrazuril],percent Bodipy-positive cells,[1],8.05 ± 1.8%
same,percent Bodipy-positive cells,library stock concentration: 4.7 mM,9.52 ± 2.6%
same,percent Bodipy-positive cells,[2],42.8 ± 32%
N#CCNC(=O)c1ccc(-c2ccnc(Nc3ccc(N4CCOCC4)cc3)n2)cc1,percent Bodipy-positive cells,[1],91.6 ± 2.1%
same,percent Bodipy-positive cells,[2],99.68 ± 0.46%
"CCCn1c(=O)c2[nH]c(-c3ccc(S(=O)(=O)O)cc3)nc2n(CCC)c1=O [1,3-Dipropyl-8-p-sulfophenylxanthine]",percent Bodipy-positive cells,[2],32.4 ± 1.6%
Cc1ccccc1N1C(=O)c2cc(S(N)(=O)=O)c(Cl)cc2NC1C (centres undefined) [Metolazone],percent Bodipy-positive cells,,16 ± 1%
same,percent Bodipy-positive cells,[1],8.16 ± 1.4%
OCCOCCN1CCN(C(c2ccccc2)c2ccc(Cl)cc2)CC1 (centres undefined) [Hydroxyzine dihydrochloride],percent Bodipy-positive cells,,53.9 ± 0.54%
OCCOCCN1CCN(C(c2ccccc2)c2ccc(Cl)cc2)CC1 (centres undefined) [Hydroxyzine pamoate],percent Bodipy-positive cells,library stock concentration: 2.6 mM,16.3 ± 8.7%
same,percent Bodipy-positive cells,[2],48.8 ± 12%
